Patent US6156724A (priority 1998, dated 2000)

Assay: general procedure: solution-phase peptide synthesis; EDC/HOBT; DCC

Row | Substance | step yield (coupling step) [%] | step yield (late stage modification step) [%]
1 | [Isobutyryl^9 ]Didemnin B | 28 | –
2 | [Acetyl^9 ]Didemnin B | 88 | –
3 | Z-D-MeLeu-Thr-{O-[Boc-(3S,4R,5R)Ist-O-Hip-Leu-Pro-Me2 Tyr]}-OTMSe | 50 | –
4 | Z-D-MeLeu-Thr-{O-[Boc-(3S,4S,5S)Ist-O-Hip-Leu-Pro-Me2 Tyr]}-OTMSe | 50 | –
5 | [Propionyl^9 ]Didemnin B | 93 | –
6 | [L-Ala^8 ]Didemnin B | – | 97
